In paper PMC10163288:
The other results are listed elsewhere or left out.

B1: il10ra_site1_normal_mot_e933875d0a4b1ebfe8e667f01481c16a_0001_1_af2_000000222_0001_49_63_H_._HHH_b2_03305_0001_0000100003_0000002_0_af2pred_0001 (protein)
chain: SSSSSDVTERLIRLSRRALELLNEGNPEEAEKLLEEAFELAEENNDLNTLAVIEFLLERVSSSSS
B2: il10ra_site1_sap_18_mot_ems_3hC_416_0001_000000048_0001_1_19_H_._HHH_b2_08039_af2_0001_0000200020_0000001_0_0001 (protein)
chain: SSSSDESYEIARRVIEELIELFREGDPEEAERLVEEAEKELKELGDRIALLVLKWLFREEKSSSS
B3: il10ra_site1_sap_25_mot_HHH_b1_04015_af2_000000074_0001_1_17_H_._HHH_b2_05022_af2_0001_0000200016_0000002_0_0001_af2pred_0001 (protein)
chain: SSSSNEEAEISTRFELRLARIAAELGDPELARFALRSAESLLRREGDEELLKEVEELLEEISSSS
B4: il10ra_site1_sap_15_mot_HHH_b1_00456_000000263_0001_1_17_H_._HHH_b1_05058_af2_0001_0000100002_0000001_0_0001 (protein)
chain: SSSSSEANREIYELLREAVELDHEGDPEEAEEVLREAQEIAEENNNRVLLALIEWLLKRIGSSSS
B5: il10ra_site1_normal_mot_e1dd4851c59bc1cdde016f988f6856bd_0001_1_000000200_0001_16_31_H_._HEEHE_2724_af2_0001_0000200008_0000001_0_af2pred_0001 (protein)
chain: SDEERFRLAVENAAELAGVEDVEVERENGEFEVTIHADSPAARELERMVRFIALILNVEVEVEIR
B6: il10ra_site1_normal_mot_HHH_b2_03220_af2_000000223_0001_23_40_H_._HHH_b1_08461_0001_0000200033_0000001_0 (protein)
chain: SSSSTEENERIWELLRRVLELAANGNPEEAQEVLEEARELVEEANNRLLRFNVRILEEHLRSSSS
B7: il10ra_site1_normal_mot_HHH_b1_08172_af2_000000028_0001_1_19_H_._HHH_b1_08627_af2_0001_0000200012_0000002_0 (protein)
chain: SSSSSDEVYEEIKELIEKANELARRGDKEEARKVLEEARELAEEAGSEVLRWTIEYLERRISSSS
B8: il10ra_site1_sap_27_mot_HHH_b2_02736_000000092_0001_22_38_H_._HHH_b1_04545_af2_0001_0000600044_0000001_0_0001 (protein)
chain: SSSSSEEEQELLELIHEVIELMLRGDEEELRELLERALELAEKLNDERAALNLRSLLEILSSSSS
B9: il10ra_site1_normal_mot_HHH_b1_05357_000000034_0001_23_39_H_._HHH_b1_01999_0001_0000200009_0000001_1_af2pred_0001 (protein)
chain: SSSSDEEELEELEEEVKELVRRGDPHEAAYLVLRAFAIALKLNDPELKRRVRELAELVLDSSSSS
B10: il10ra_site1_normal_mot_HHH_b2_00273_000000062_0001_23_39_H_._HHH_b1_02145_af2_0001_0000400021_0000001_0 (protein)
chain: SSSDREEFLRLAQKALQLAFRLRDEETLQLLWELIKRYAEHNDPELLEELERLVEELEELATSSS
B11: il10ra_site1_normal_mot_HHH_b1_03353_af2_000000170_0001_1_18_H_._HHH_b1_01603_0001_0000200017_0000001_0 (protein)
chain: SSSSDEEEEFEELFERIEELIRQGDPHEAYELLRELAELAAEIGDPELQRLVLELARRLSSSSSS
B12: il10ra_site1_normal_mot_HHH_b2_08186_000000021_0001_43_56_H_._HHH_b1_00125_0001_0000100002_0000001_0 (protein)
chain: SSSSSSDLEEEIEELLEELKQISDPERFAEVARRVLRLIYELGDEELLQELWEILKRLSSSSSSS
B13: il10ra_site1_normal_mot_HHH_b2_06786_000000018_0001_41_57_H_._HHH_b1_02372_af2_0001_0000300019_0000001_0 (protein)
chain: SSSSSVEERASEVAAEVARIAFRLNNPEILQEVWELFKRIIREGDPELLKELEELLEELRSSSSS
B14: il10ra_site1_sap_14_mot_HHH_b2_00315_000000062_0001_1_19_H_._220949193216051a94ae8351480a38c9_0001_0001_0000500009_0000002_0_0001 (protein)
chain: SSSSSDISEELQELIREAMELDTEGNPEEARKVAEEAQELAEEAGNRLFEVVIRFVLELISSSSS
B15: il10ra_site1_sap_21_mot_HHH_b2_02053_af2_000000006_0001_3_19_H_._HHH_b1_00300_0001_0000300025_0000001_0_0001_af2pred_0001 (protein)
chain: SSSSTDKHLLEVAMEILRLALEQGDEELAERIIKQLELQIKLTNDEEAQEELEELKRLLESSSSS
B16: il10ra_site1_sap_24_mot_HHH_b1_06881_000000226_0001_1_19_H_._HHH_b2_02204_0001_0000100005_0000002_0_0001 (protein)
chain: SSSSSLLERALRFWERMLEQAQERNDEESLKQLLMALEFIAKEANDEEAKEVVEEIREEFSSSSS
B17: il10ra_site1_sap_16_mot_HHH_b1_01247_af2_000000274_0001_1_19_H_._HHH_b2_06478_af2_0001_0000600022_0000001_0_0001 (protein)
chain: SSSSDAVEFLLRQAIEALKLLVEQGDREKFEHVLRMLENLAEQANDDEVERILRELEEELNSSSS
B18: il10ra_site1_sap_25_mot_HHH_b1_03277_000000286_0001_44_57_H_._HHH_b1_07496_af2_0001_0000400026_0000001_0_0001 (protein)
chain: SSSSSSMHRVYELSRRIAHLIREGDKEEAEKLLEELEEIAEEIGSPHARFLLEVLERMLKSSSSS
B19: il10ra_site1_normal_mot_2c1a291787c6f40772924d4e9068d803_0001_af2_000000222_0001_34_48_H_._HHH_b1_03643_af2_0001_0000200006_0000001_0 (protein)
chain: SSSSSDEEVQQLAARAAARAQRLGDEERVERLFQLRVKLYNEGDPRVEEELEELAREVLESSSSS
B20: il10ra_site1_sap_21_mot_HHH_b2_00277_af2_000000172_0001_1_17_H_._HHH_b1_00860_af2_0001_0000100003_0000001_0_0001 (protein)
chain: SVEERLEELLEEDPDDELVRLILEVLELLKKGDPEEAARLAQEVLRLIYRAGDPELLRLLWEIVS
B21: il10ra_site1_normal_mot_HHH_b2_00345_af2_000000013_0001_42_56_H_._HHH_b1_02372_af2_0001_0000400032_0000002_0 (protein)
chain: SSSSDVEEEAARVAQEVLRIAFRRRDPEVLQEVWELFKRIIREGDPRLLEELEELLEELRSSSSS
B22: il10ra_site1_normal_mot_HHH_b2_00277_af2_000000172_0001_1_17_H_._HHH_b2_00060_0001_0000500039_0000001_0_af2pred_0001 (protein)
chain: SSSSSSEEVRKEVEKLLEEAEHIEDPRELSYVLTRAWAIANRGNDEELKRLVEEVAKRLLSSSSS
B23: il10ra_site1_sap_17_mot_HHH_b2_05984_000000071_0001_38_52_H_._HHH_b1_08005_0001_0000300015_0000002_0_0001 (protein)
chain: SSSSTEAYEVAKRAIEEALKLWREGDDEQAREVLEEAIRIAEELGNWAAVFSLRHLLEVLRSSSS
B24: il10ra_site1_normal_mot_HHH_b2_08186_000000021_0001_43_56_H_._HHH_b1_07705_0001_0000400053_0000001_0 (protein)
chain: SSSSSDEVEEEIEELLEELKRLTDPEEFMELVRRVLQLVFKLGDAELLQELWELLKRFASSSSSS
B25: il10ra_site1_normal_mot_HHH_b1_03763_000000209_0001_22_38_H_._75682a83c85cb44ccff1401ed1a83487_0001_1_0001_0000400019_0000001_0 (protein)
chain: DEEREELTRELEELAPTPEVRRLLEELLEALKEGDAELVFKLVRRLIELVRDPRFAHILIELIIR
B26: il10ra_site1_normal_mot_HHH_b2_07579_000000275_0001_1_19_H_._HHH_b2_04470_0001_0000100008_0000001_0_af2pred_0001 (protein)
chain: SSSSSAAERVLELIREAIELLNNGNPEEAEKVLEEAKEIAEENNNLVLRHALKRIEEEIKSSSSS
B27: il10ra_site1_normal_mot_e1dd4851c59bc1cdde016f988f6856bd_0001_1_000000200_0001_16_31_H_._HEEHE_2724_af2_0001_0000200008_0000001_0_af2pred_dldesign_0_af2pred (protein)
chain: SKEDRFRLGVRAAAEIAGVKDVEVRIEDGVFKVTIHEDTPAAEELKRMVEYNAENLNVKVEVEIV
B28: il10ra_site1_normal_mot_HHH_b2_06977_000000171_0001_1_19_H_._HHH_b1_02027_af2_0001_0000100004_0000003_0 (protein)
chain: SSSSDEELQRALELSKEAVELALRGNEEEAQELLEEALELAERAGNERLARTIEFLLEALKSSSS
B29: il10ra_site1_normal_mot_HHH_b2_04274_000000146_0001_1_19_H_._5a9ba470ffdefe7bbe7d066b6a6aec3b_0001_af2_0001_0000200013_0000001_1_af2pred_0001 (protein)
chain: NELVKAIRLLLQRFADDPEVLRVLRRILKLSLEDPEEAVELLLELAEKLGDPEVEELAREVERRR
B30: il10ra_site1_sap_21_mot_HHH_b2_00345_af2_000000013_0001_42_56_H_._HHH_b1_01164_0001_0000400012_0000001_0_0001_af2pred_0001 (protein)
chain: SSSSSSERAVRLLIRAARILEKEGDPKRAEASLRLALAAAKLAGNPELEEEVQELLERLRSSSSS
B31: il10ra_site1_normal_mot_HHH_b2_01397_000000078_0001_23_39_H_._HHH_b1_01918_af2_0001_0000100012_0000002_0_af2pred_0001 (protein)
chain: SSSSDAEEAVRFLLKAAKQIEDEEKVKLTLRFARALAESANNEELKELIEEVEKELERLLSSSSS
B32: il10ra_site1_normal_mot_HHH_b2_00277_af2_000000172_0001_1_17_H_._HHH_b2_06211_0001_0000200017_0000001_1 (protein)
chain: SSSSSDVEERIQELLEEAKHIPDRAHRSYVLIEAYALAHQLGNPEILEEVREVAIRLVERSSSSS
B33: il10ra_site1_normal_mot_HHH_b1_05254_000000006_0001_1_19_H_._HHH_b2_03913_0001_0000100002_0000001_0 (protein)
chain: SSSSDEAYELVRKAIEEALKLYRNGNPEEAQRLIEEVIEELRELGNVAAVWAAEHVLRVLRSSSS
B34: il10ra_site1_sap_26_mot_HHH_b2_02354_af2_000000157_0001_40_56_H_._HHH_b1_06029_af2_0001_0000600025_0000002_0_0001 (protein)
chain: SSSSSSDLNREVYELSEEAFEIEDPEERRRVLEEALELAEEANNWAAAYAIRLALEDGSSSSSSS
B35: il10ra_site1_normal_mot_b26a303360aa2756ef5b79665ce52f45_0001_000000179_0001_1_11_H_._HHH_b1_03806_0001_0000500036_0000001_0 (protein)
chain: SSSSDLSQELHKLSREAARLLTEGNPEEAEEVLEEAEKIAKELGNEVILFSLEHLLRDIRSSSSS
B36: il10ra_site1_normal_mot_HHH_b2_02736_000000092_0001_22_38_H_._HHH_b1_07991_0001_0000100004_0000001_0 (protein)
chain: SSSSSSEEYEERVEELLERLEEVSPQEAYELLREAIELAAEANDKELFELIMEALERWLRSSSSS
B37: il10ra_site1_sap_14_mot_HHH_b1_06348_000000162_0001_1_15_H_._HHH_b1_02721_0001_0000200021_0000002_0_0001 (protein)
chain: SSSSSKEEEQLRLSLEFAEWLLREGDPEAARRIAEAALDIARRLGDEELEREIEELLREIGSSSS

What follows are binders tested against il10ra, Q13651 (assay: yeast display titration).

Apparent Kd, inactive:
B1 no binding seen
B2 no binding seen
B3 no binding seen
B4 no binding seen
B5 no binding seen
B6 no binding seen
B7 no binding seen
B8 no binding seen
B9 no binding seen
B10 no binding seen
B11 no binding seen
B12 no binding seen
B13 no binding seen
B14 no binding seen
B15 no binding seen
B16 no binding seen
B17 no binding seen
B18 no binding seen
B19 no binding seen
B20 no binding seen
B21 no binding seen
B22 no binding seen
B23 no binding seen
B24 no binding seen
B25 no binding seen
B26 no binding seen
B27 no binding seen
B28 no binding seen
B29 no binding seen
B30 no binding seen
B31 no binding seen
B32 no binding seen
B33 no binding seen
B34 no binding seen
B35 no binding seen
B36 no binding seen
B37 no binding seen

As a short view, some entries already given:
Apparent Kd, inactive:
B21 no binding seen
B22 no binding seen
